# Source: PubChem BioAssay AID248 (DTP/NCI, 2004)
# The list does not hold the whole screen: it is rich in T/C values a quarter to a half above the control, in often repeated tests (any T/C) and in doses without a T/C. Other doses and runs of a compound stand elsewhere. T/C is the treated group as % of the vehicle group. Some entries give survivors of the animals treated and no T/C: the source files T/C as zero there, which appears to mark a toxic dose or a test without result, not a measured value. Some doses without a T/C left all or most animals alive at the check, yet need not have been tolerated: the source hardly ever lists a survival T/C far under the control, and the zero likely stands for such cases as well. Counts of survivors are from the toxicity check (mostly the fifth day) where no day follows; animals may have died later. Schedule codes are those of the source, read here as Q, the interval in days (D) or hours (H), X, the number of doses. Some schedules carry Z or #; the key to these is not given. Some entries hold several experiments; their values stand side by side, smallest first. Some molecules as drawn cover several salts, stereoisomers or complexes of the source; a dose is that of the sample tested. Where survival is the endpoint, the PubChem record calls one and a half times the control and up active, and a quarter to a half above the control has no call in these data; cut-offs in other NCI protocols can differ.
# Test system: L1210 leukemia ip in BDF1 mice, survival T/C
# Test: NCI In Vivo Anticancer Drug Screen. Data for tumor model L1210 Leukemia (intraperitoneal) in B6D2F1 (BDF1) mice
# Conditions: T/C endpoint: mean survival time, higher T/C = longer survival
# [1] = dose: 200.0 mg/kg/injection, schedule: Q01DX009 (ip), vehicle: saline with Tween-80
# [2] = dose: 100.0 mg/kg/injection, schedule: Q01DX009 (ip), vehicle: saline with Tween-80
# [3] = dose: 400.0 mg/kg/injection, schedule: Q01DX001 (ip), vehicle: saline
# [4] = dose: 400.0 mg/kg/injection, schedule: Q01DX009 (ip), vehicle: Klucel (hydroxypropylcellulose) (HPC)
# [5] = dose: 200.0 mg/kg/injection, schedule: Q01DX001 (ip), vehicle: saline
smiles,measurement,setting,value
CCCCC1C(=O)OC(C(C)C(O)CCCN=C(N)N)C(C)C=C(C)CCCCC(O)CC(O)CC(O)CC(O)CC(O)C(OC2OC(CO)C(O)C2O)C=C(C)C(O)CCCC(O)CCCC(O)CCC(C)C1O (centres undefined),survivor count,"dose: 1.0 mg/kg/injection, schedule: Q01DX Z (ip), vehicle: carboxymethylcellulose (CMC)",6 of 6
same,survivor count,"dose: 1.6 mg/kg/injection, schedule: Q01DX Z (ip), vehicle: carboxymethylcellulose (CMC)",6 of 6
same,survivor count,"dose: 2.5 mg/kg/injection, schedule: Q01DX Z (ip), vehicle: carboxymethylcellulose (CMC)",2 of 6 and 6 of 6
same,survivor count,"dose: 5.0 mg/kg/injection, schedule: Q01DX Z (ip), vehicle: carboxymethylcellulose (CMC)",0 of 6
same,survivor count,"dose: 10.0 mg/kg/injection, schedule: Q01DX Z (ip), vehicle: carboxymethylcellulose (CMC)",0 of 6
same,survivor count,"dose: 20.0 mg/kg/injection, schedule: Q01DX Z (ip), vehicle: carboxymethylcellulose (CMC)",0 of 6
N=C1C=C(N)C(=O)c2ccccc21,survivor count,"dose: 6.25 mg/kg/injection, schedule: Q01DX009 (ip), vehicle: Klucel (hydroxypropylcellulose) (HPC)",1 of 3
same,survivor count,"dose: 12.5 mg/kg/injection, schedule: Q01DX009 (ip), vehicle: Klucel (hydroxypropylcellulose) (HPC)",0 of 3
same,survivor count,"dose: 25.0 mg/kg/injection, schedule: Q01DX009 (ip), vehicle: Klucel (hydroxypropylcellulose) (HPC)",0 of 3
same,survivor count,"dose: 50.0 mg/kg/injection, schedule: Q01DX009 (ip), vehicle: Klucel (hydroxypropylcellulose) (HPC)",0 of 3
same,survivor count,"dose: 100.0 mg/kg/injection, schedule: Q01DX009 (ip), vehicle: Klucel (hydroxypropylcellulose) (HPC)",0 of 3
same,survivor count,"dose: 200.0 mg/kg/injection, schedule: Q01DX009 (ip), vehicle: Klucel (hydroxypropylcellulose) (HPC)",0 of 3
same,survivor count,[1],0 of 6
same,survivor count,"dose: 400.0 mg/kg/injection, schedule: Q01DX009 (ip), vehicle: saline with Tween-80",0 of 6
[Cl][Cd][Cl].c1ccc(N=P(c2ccccc2)(c2ccccc2)c2ccccc2)cc1,survivor count,"dose: 18.75 mg/kg/injection, schedule: Q01DX001 (ip), vehicle: other",1 of 6
same,survivor count,"dose: 37.5 mg/kg/injection, schedule: Q01DX001 (ip), vehicle: other",2 of 6
same,survivor count,"dose: 75.0 mg/kg/injection, schedule: Q01DX001 (ip), vehicle: other",0 of 6
same,survivor count,"dose: 150.0 mg/kg/injection, schedule: Q01DX001 (ip), vehicle: other",0 of 6
same,survivor count,"dose: 300.0 mg/kg/injection, schedule: Q01DX001 (ip), vehicle: other",0 of 6
CCN=C(N)Nc1ccc(NC(=O)c2ccc(C(=O)Nc3ccc(NC(N)=NCC)cc3)cc2)cc1,T/C,"dose: 0.5 mg/kg/injection, schedule: Q01DX Z (ip), vehicle: carboxymethylcellulose (CMC)",125 % of control
same,T/C,"dose: 14.0 mg/kg/injection, schedule: Q01DX001 (ip), vehicle: carboxymethylcellulose (CMC)",131 % of control
same,T/C,"dose: 14.0 mg/kg/injection, schedule: Q01DX001 (ip), vehicle: other",144 % of control
same,survivor count,"dose: 64.0 mg/kg/injection, schedule: Q01DX Z (ip), vehicle: carboxymethylcellulose (CMC)",0 of 6
same,survivor count,"dose: 720.0 mg/kg/injection, schedule: Q01DX001 (ip), vehicle: carboxymethylcellulose (CMC)",0 of 10
same,survivor count,"dose: 720.0 mg/kg/injection, schedule: Q01DX001 (ip), vehicle: other",0 of 10
same,survivor count,"dose: 1080.0 mg/kg/injection, schedule: Q01DX001 (ip), vehicle: carboxymethylcellulose (CMC)",1 of 10
same,survivor count,"dose: 1080.0 mg/kg/injection, schedule: Q01DX001 (ip), vehicle: other",0 of 10
CC(C(=O)O)c1ccccc1 (centres undefined),survivor count,[2],2 of 3
same,survivor count,[1],3 of 3
CC(=O)[OH2+].CC(=O)[OH2+].[O-]c1ccc2ccccc2c1CN1CCCCC1.[O-]c1ccc2ccccc2c1CN1CCCCC1.[O]=[U+2]=[O].[O]=[U+2]=[O],survivor count,"dose: 20.0 mg/kg/injection, schedule: Q01DX001 (ip), vehicle: other",1 of 4
same,survivor count,"dose: 40.0 mg/kg/injection, schedule: Q01DX001 (ip), vehicle: other",1 of 4
same,survivor count,"dose: 80.0 mg/kg/injection, schedule: Q01DX001 (ip), vehicle: other",0 of 4
O=c1[nH]nc(-c2ccncc2)s1,survivor count,"dose: 150.0 mg/kg/injection, schedule: Q01DX001 (ip), vehicle: saline",3 of 6
same,survivor count,"dose: 200.0 mg/kg/injection, schedule: Q04DX003 (ip), vehicle: saline",2 of 6
same,survivor count,"dose: 300.0 mg/kg/injection, schedule: Q01DX001 (ip), vehicle: saline",1 of 6
same,survivor count,"dose: 400.0 mg/kg/injection, schedule: Q04DX003 (ip), vehicle: saline",0 of 6
CCOC(=O)C(C#N)S(C)(=O)=O (centres undefined),survivor count,[3],0 of 3
O=C(O)c1ccc(-c2ccccc2)cc1,survivor count,[4],5 of 6
same,survivor count,"dose: 400.0 mg/kg/injection, schedule: Q01DX Z (ip), vehicle: carboxymethylcellulose (CMC)",6 of 6
O=C(OCCn1c(-c2ccccn2)nc2ccccc21)C(O)(c1ccccc1)c1ccccc1,survivor count,"dose: 400.0 mg/kg/injection, schedule: Q01DX001 (ip), vehicle: Klucel (hydroxypropylcellulose) (HPC)",0 of 6
CCCCCOc1ccc(C(=O)/C(Br)=C/C(=O)O)cc1,survivor count,[2],2 of 6
CC(=O)OCC1OC(OC2C(COC(C)=O)OC(Sc3ccccc3)C(OC(C)=O)C2OC(C)=O)C(OC(C)=O)C(OC(C)=O)C1OC(C)=O (centres undefined),survivor count,"dose: 6.25 mg/kg/injection, schedule: Q01DX009 (ip), vehicle: saline with Tween-80",3 of 3
same,survivor count,"dose: 12.5 mg/kg/injection, schedule: Q01DX009 (ip), vehicle: saline with Tween-80",3 of 3
same,survivor count,"dose: 50.0 mg/kg/injection, schedule: Q01DX009 (ip), vehicle: saline with Tween-80",3 of 3
same,survivor count,"dose: 100.0 mg/kg/injection, schedule: Q04DX003 (ip), vehicle: saline with Tween-80",3 of 3
COc1ccc(OC)c(C(O)C(C)NC(C)(C)C)c1 (centres undefined),survivor count,[5],1 of 4
same,survivor count,[3],1 of 4
CCc1cc(C)cc(CC)c1N,survivor count,[4],0 of 6
CC(C)(C)CC(C)(C)c1ccc(OCCOS(=O)(=O)c2cccc([N+](=O)[O-])c2)cc1,survivor count,"dose: 400.0 mg/kg/injection, schedule: Q04DX003 (ip), vehicle: saline with Tween-80",5 of 6
O=NN(CCF)C(=O)NCCF,T/C,"dose: 4.0 mg/kg/injection, schedule: Q01DX001 (ip), vehicle: saline",147 % of control
same,survivor count,"dose: 14.0 mg/kg/injection, schedule: Q01DX001 (ip), vehicle: saline",4 of 10
same,survivor count,"dose: 18.0 mg/kg/injection, schedule: Q01DX001 (ip), vehicle: saline",2 of 6
same,survivor count,"dose: 26.0 mg/kg/injection, schedule: Q01DX001 (ip), vehicle: saline",2 of 6
same,survivor count,"dose: 28.0 mg/kg/injection, schedule: Q01DX001 (ip), vehicle: saline",0 of 10
same,survivor count,"dose: 40.0 mg/kg/injection, schedule: Q01DX001 (ip), vehicle: saline",0 of 6
same,survivor count,"dose: 60.0 mg/kg/injection, schedule: Q01DX001 (ip), vehicle: saline",0 of 6
same,survivor count,"dose: 90.0 mg/kg/injection, schedule: Q01DX001 (ip), vehicle: saline",0 of 6
same,survivor count,"dose: 133.0 mg/kg/injection, schedule: Q01DX001 (ip), vehicle: saline",0 of 6
same,survivor count,[5],0 of 6
CCC1=C[C@H]2CN(CCc3c([nH]c4ccccc34)[C@@](C(=O)OC)(c3cc4c(cc3OC)N(C)[C@H]3[C@@](O)(C(=O)NC)[C@H](OC(C)=O)[C@]5(CC)C=CCN6CC[C@]43[C@@H]65)C2)C1,T/C,"dose: 0.12 mg/kg/injection, schedule: Q01DX009 (ip), vehicle: water",139 % of control
same,T/C,"dose: 0.5 mg/kg/injection, schedule: Q01DX009 (ip), vehicle: saline",129 % of control
same,T/C,"dose: 0.5 mg/kg/injection, schedule: Q01DX009 (ip), vehicle: water",142 % of control
same,survivor count,"dose: 2.0 mg/kg/injection, schedule: Q01DX009 (ip), vehicle: water",5 of 6
CN1CCC(O)(C#N)CC1,survivor count,"dose: 30.0 mg/kg/injection, schedule: Q01DX001 (ip), vehicle: saline",1 of 6
